Measurements taken from PMC4583372.
Results are given in words; binding and its absence hold for the method and conditions named. In cells and extracts the contact can be indirect. These calls come from enrichment with a bait or labelling near it, and not all partners need be listed.

Chains of the proteins cited; added tags and fusions are not shown.
UniProt P32958: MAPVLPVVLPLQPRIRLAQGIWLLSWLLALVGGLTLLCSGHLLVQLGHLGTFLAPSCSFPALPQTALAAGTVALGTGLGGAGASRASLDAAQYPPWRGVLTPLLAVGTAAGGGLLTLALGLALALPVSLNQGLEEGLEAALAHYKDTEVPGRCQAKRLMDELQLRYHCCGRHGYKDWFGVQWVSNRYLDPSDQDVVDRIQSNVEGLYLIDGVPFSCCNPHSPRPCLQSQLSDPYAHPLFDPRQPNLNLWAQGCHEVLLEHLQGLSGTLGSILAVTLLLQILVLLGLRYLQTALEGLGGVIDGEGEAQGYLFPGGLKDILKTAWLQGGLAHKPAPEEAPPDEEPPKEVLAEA

Tests used:
[1] = target: ROM-1 (rod outer segment protein 1) (mouse (endogenous in retina)) (UniProt P32958); assay: affinity purification with mass spectrometry; CHAPS-solubilized membrane pellet of WT mouse retinas; RDS mAB 2E7 or ROM-1 mAB 2H5 chemically linked to sepharose 2B beads, 1 h at 4°C; elution with 1% SDS; LC-MS; rds-/- retinas as negative control
[2] = target: T1, Syntaxin-3 isoform B (Stx3) (mouse (endogenous in retina)) (UniProt Q64704); assay: affinity purification with mass spectrometry; CHAPS-solubilized membrane pellet of WT mouse retinas; anti-Syn3B (Synaptic Systems) and protein A beads overnight at 4°C; elution with 1% SDS; LC-MS; non-specific IgG as negative control
T1 sequence: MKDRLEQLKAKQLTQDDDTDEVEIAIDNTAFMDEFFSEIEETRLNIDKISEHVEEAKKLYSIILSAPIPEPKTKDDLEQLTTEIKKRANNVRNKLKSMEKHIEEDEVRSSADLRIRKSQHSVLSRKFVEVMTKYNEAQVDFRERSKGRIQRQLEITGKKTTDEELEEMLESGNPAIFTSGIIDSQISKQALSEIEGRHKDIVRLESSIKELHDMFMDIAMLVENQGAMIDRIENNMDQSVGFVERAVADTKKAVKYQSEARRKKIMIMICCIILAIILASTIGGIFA

B1: Peripherin-2 also known as RDS (retinal degeneration slow) (protein, UniProt P15499 1-346)
chain: MALLKVKFDQKKRVKLAQGLWLMNWLSVLAGIVLFSLGLFLKIELRKRSEVMNNSESHFVPNSLIGVGVLSCVFNSLAGKICYDALDPAKYAKWKPWLKPYLAVCIFFNVILFLVALCCFLLRGSLESTLAYGLKNGMKYYRDTDTPGRCFMKKTIDMLQIEFKCCGNNGFRDWFEIQWISNRYLDFSSKEVKDRIKSNVDGRYLVDGVPFSCCNPSSPRPCIQYQLTNNSAHYSYDHQTEELNLWLRGCRAALLNYYSSLMNSMGVVTLLVWLFEVSITAGLRYLHTALESVSNPEDPECESEGWLLEKSVPETWKAFLESFKKLGKSNQVEAEGADAGPAPEAG
[1]
  binding: binds
[2]
  binding: binds
